Measurements taken from PMC3486646.
Results are given in words; binding and its absence hold for the method and conditions named. In cells and extracts the contact can be indirect. A yes stands for co-enrichment or nearness to the bait. Other partners may have been found. For some assays here: A no says only that the protein was not detected with the bait.

Amino acid sequences for entries named in this document (tags omitted).
UniProt P12504: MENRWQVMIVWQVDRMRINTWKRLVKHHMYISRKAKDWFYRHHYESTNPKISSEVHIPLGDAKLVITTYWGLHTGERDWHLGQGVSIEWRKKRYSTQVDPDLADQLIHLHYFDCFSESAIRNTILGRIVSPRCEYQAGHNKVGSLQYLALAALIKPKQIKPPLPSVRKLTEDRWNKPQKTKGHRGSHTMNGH
UniProt P12520: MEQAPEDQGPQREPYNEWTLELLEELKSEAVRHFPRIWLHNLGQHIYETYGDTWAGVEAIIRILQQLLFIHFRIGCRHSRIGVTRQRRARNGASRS

T1: Staufen1-TAP, O95793
T1 chain: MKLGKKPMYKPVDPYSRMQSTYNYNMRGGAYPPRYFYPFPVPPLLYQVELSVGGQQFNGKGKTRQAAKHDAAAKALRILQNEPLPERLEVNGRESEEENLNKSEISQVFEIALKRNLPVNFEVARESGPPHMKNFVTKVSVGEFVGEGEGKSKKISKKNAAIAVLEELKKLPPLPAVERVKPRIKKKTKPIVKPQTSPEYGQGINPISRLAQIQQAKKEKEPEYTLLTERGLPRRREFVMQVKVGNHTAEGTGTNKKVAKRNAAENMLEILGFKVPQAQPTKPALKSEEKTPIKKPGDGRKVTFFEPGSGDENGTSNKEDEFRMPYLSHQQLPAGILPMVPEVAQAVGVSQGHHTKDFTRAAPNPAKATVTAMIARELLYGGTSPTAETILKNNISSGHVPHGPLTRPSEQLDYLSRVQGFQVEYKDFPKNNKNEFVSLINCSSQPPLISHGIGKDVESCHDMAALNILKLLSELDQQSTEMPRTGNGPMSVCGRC

B1: Calnexin, P27824 21-592 (protein)
chain: HDGHDDDVIDIEDDLDDVIEEVEDSKPDTTAPPSSPKVTYKAPVPTGEVYFADSFDRGTLSGWILSKAKKDDTDDEIAKYDGKWEVEEMKESKLPGDKGLVLMSRAKHHAISAKLNKPFLFDTKPLIVQYEVNFQNGIECGGAYVKLLSKTPELNLDQFHDKTPYTIMFGPDKCGEDYKLHFIFRHKNPKTGIYEEKHAKRPDADLKTYFTDKKTHLYTLILNPDNSFEILVDQSVVNSGNLLNDMTPPVNPSREIEDPEDRKPEDWDERPKIPDPEAVKPDDWDEDAPAKIPDEEATKPEGWLDDEPEYVPDPDAEKPEDWDEDMDGEWEAPQIANPRCESAPGCGVWQRPVIDNPNYKGKWKPPMIDNPSYQGIWKPRKIPNPDFFEDLEPFRMTPFSAIGLELWSMTSDIFFDNFIICADRRIVDDWANDGWGLKKAADGAAEPGVVGQMIEAAEERPWLWVVYILTVALPVFLVILFCCSGKKQTSGMEYKKTDAPQPDVKEEEEEKEEEKDKGDEEEEGEEKLEEKQKSDAEEDGGTVSQEEEDRKPKAEEDEILNRSPRNRKPRRE
B2: Upf1 (Up-frameshift protein 1) (protein, UniProt Q92900 1-1129)
chain: MSVEAYGPSSQTLTFLDTEEAELLGADTQGSEFEFTDFTLPSQTQTPPGGPGGPGGGGAGGPGGAGAGAAAGQLDAQVGPEGILQNGAVDDSVAKTSQLLAELNFEEDEEDTYYTKDLPIHACSYCGIHDPACVVYCNTSKKWFCNGRGNTSGSHIVNHLVRAKCKEVTLHKDGPLGETVLECYNCGCRNVFLLGFIPAKADSVVVLLCRQPCASQSSLKDINWDSSQWQPLIQDRCFLSWLVKIPSEQEQLRARQITAQQINKLEELWKENPSATLEDLEKPGVDEEPQHVLLRYEDAYQYQNIFGPLVKLEADYDKKLKESQTQDNITVRWDLGLNKKRIAYFTLPKTDSGNEDLVIIWLRDMRLMQGDEICLRYKGDLAPLWKGIGHVIKVPDNYGDEIAIELRSSVGAPVEVTHNFQVDFVWKSTSFDRMQSALKTFAVDETSVSGYIYHKLLGHEVEDVIIKCQLPKRFTAQGLPDLNHSQVYAVKTVLQRPLSLIQGPPGTGKTVTSATIVYHLARQGNGPVLVCAPSNIAVDQLTEKIHQTGLKVVRLCAKSREAIDSPVSFLALHNQIRNMDSMPELQKLQQLKDETGELSSADEKRYRALKRTAERELLMNADVICCTCVGAGDPRLAKMQFRSILIDESTQATEPECMVPVVLGAKQLILVGDHCQLGPVVMCKKAAKAGLSQSLFERLVVLGIRPIRLQVQYRMHPALSAFPSNIFYEGSLQNGVTAADRVKKGFDFQWPQPDKPMFFYVTQGQEEIASSGTSYLNRTEAANVEKITTKLLKAGAKPDQIGIITPYEGQRSYLVQYMQFSGSLHTKLYQEVEIASVDAFQGREKDFIILSCVRANEHQGIGFLNDPRRLNVALTRARYGVIIVGNPKALSKQPLWNHLLNYYKEQKVLVEGPLNNLRESLMQFSKPRKLVNTINPGARFMTTAMYDAREAIIPGSVYDRSSQGRPSSMYFQTHDQIGMISAGPSHVAAMNIPIPFNLVMPPMPPPGYFGQANGPAAGRGTPKGKTGRGGRQKNRFGLPGPSQTNLPNSQASQDVASQPFSQGALTQGYISMSQPSQMSQPGLSQPELSQDSYLGDEFKSQIDVALSQDSTYQGERAYQHGGVTGLSQY
B3: Upf3b (protein, UniProt Q9BZI7 1-483)
chain: MKEEKEHRPKEKRVTLLTPAGATGSGGGTSGDSSKGEDKQDRNKEKKEALSKVVIRRLPPTLTKEQLQEHLQPMPEHDYFEFFSNDTSLYPHMYARAYINFKNQEDIILFRDRFDGYVFLDNKGQEYPAIVEFAPFQKAAKKKTKKRDTKVGTIDDDPEYRKFLESYATDNEKMTSTPETLLEEIEAKNRELIAKKTTPLLSFLKNKQRMREEKREERRRREIERKRQREEERRKWKEEEKRKRKDIEKLKKIDRIPERDKLKDEPKIKVHRFLLQAVNQKNLLKKPEKGDEKELDKREKAKKLDKENLSDERASGQSCTLPKRSDSELKDEKPKRPEDESGRDYREREREYERDQERILRERERLKRQEEERRRQKERYEKEKTFKRKEEEMKKEKDTLRDKGKKAESTESIGSSEKTEKKEEVVKRDRIRNKDRPAMQLYQPGARSRNRLCPPDDSTKSGDSAAERKQESGISHRKEGGEE

What was measured:
Staufen1-TAP [1] = molecular target: Staufen1-TAP (UniProt O95793); experiment: affinity purification with mass spectrometry + pull-down; Staufen1-TAP eluates from HIV-1-expressing cells; mass spectrometry and/or western blotting
Staufen1-TAP, O95793 = molecular target: T1, Staufen1-TAP, O95793; experiment: affinity purification with mass spectrometry; tandem affinity purification of Staufen1-TAP from lysates of stable 293T cells, mock or pNL4-3 transfected; eluates on SDS-PAGE, 23 gel slices, in gel trypsin digestion, LC-MS/MS; FDR less than 1%; settings: remark: other sources report otherwise
Staufen1-TAP [2] = molecular target: Staufen1-TAP (UniProt O95793); experiment: as above

Molecule | binding (Staufen1-TAP [1]) | binding (Staufen1-TAP [2]) | further results
Vif (from UniProt P12504 1-192) | no binding | – | –
Vpr (from UniProt P12520 1-96) | no binding | – | –
B1 | – | – | binding (Staufen1-TAP, O95793): binds
B2 | – | binds | –
B3 | – | binds | –
